{
  "source": "patent US5798442A",
  "about": "(Merck Frosst Canada, Inc., priority 1995, dated 1998)",
  "experiment": "general procedure: solution-phase peptide synthesis; EDCI/HOBt",
  "data": [
    {"substance": "N-(N-Acetyl-L-aspartyl-L-glutamyl-L-valinyl)-3-amino-3-formylpropionic acid", "values": [
      {"measurement": "step yield", "setting": "late stage modification step", "value": 47, "unit": "%"}
    ]},
    {"substance": "N-Ac-Asp-(Bz)-Glu(Bz)-Val-Asp(di-bz)", "values": [
      {"measurement": "step yield", "setting": "coupling step", "value": 94, "unit": "%"}
    ]},
    {"substance": "N-Ac-Asp-Glu-Val-Asp", "values": [
      {"measurement": "step yield", "setting": "late stage modification step", "value": 93, "unit": "%"}
    ]}
  ]
}
